Data as given in PubChem BioAssay AID1259254 (NCATS, 2017)
Aim: 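Finding genes that stop cells copying their DNA twice in one cycle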 (primary screen). Cells: human HCT116 colorectal cancer cells. Reagent: single siRNA against human genes. Duration: 3 days. Measurement: 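Imaged Hoechst DNA stain sorts each cell into a cycle phase by DNA amount; per plate, G2 fraction set to 0% for non-targeting and 100% for GMNN siRNA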. Direction: G2 robust z-score and G2 cells, % of GMNN control: higher = more G2 cells, more excess DNA replication; raw share of cells in G2: higher = larger share of cells with G2 DNA content. Hit rule: 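An siRNA counts as active if its G2 robust z-score lies at least 5 MADs above the screen median; here such calls match roughly 38% of GMNN control or more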.
Here is one part, drawn at random, of about 59,000 reagents tested. Over the whole deposit, about 1,550 (2.6%) are marked active. 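G2 share is only a proxy for re-replication; each gene was hit by three separate siRNAs, and active genes were retested.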 Raw values vary from plate to plate and are shown uncorrected. Entries without a mark were called inactive. Reagents against one gene are numbered here. Not stated in the record: the amount of reagent.

gene,reagent,G2 robust z-score,"G2 cells, % of GMNN control",raw share of cells in G2 (%)
ZNF132 (zinc finger protein 132),1,-0.442,-0.145,3.48
ZNF132 (zinc finger protein 132),2,-0.864,-3.11,4.6
ZNF132 (zinc finger protein 132),3,1.66,14.7,9.48
PTPRQ (protein tyrosine phosphatase receptor type Q),1,1.76,15.4,9.27
PTPRQ (protein tyrosine phosphatase receptor type Q),2,-0.889,-3.29,1.82
PTPRQ (protein tyrosine phosphatase receptor type Q),3,0.468,6.26,6.71
CACNB1 (calcium voltage-gated channel auxiliary subunit beta 1),1,2.15,18.1,11.9
CACNB1 (calcium voltage-gated channel auxiliary subunit beta 1),2,0.304,5.1,6.51
CACNB1 (calcium voltage-gated channel auxiliary subunit beta 1),3,-1.18,-5.32,2.3
ITGA6 (integrin subunit alpha 6),1,1.29,12.1,9.43
ITGA6 (integrin subunit alpha 6),2,-1.6,-8.31,2.52
ITGA6 (integrin subunit alpha 6),3,-0.287,0.951,4.55
ZNF609 (zinc finger protein 609),1,-1.53,-7.82,1.92
ZNF609 (zinc finger protein 609),2,0.43,6,6.61
ZNF609 (zinc finger protein 609),3,-0.906,-3.41,1.9
ATP2B1-AS1 (ATP2B1 antisense RNA 1),1,-1.08,-4.64,2.39
ATP2B1-AS1 (ATP2B1 antisense RNA 1),2,-0.721,-2.1,2.34
ATP2B1-AS1 (ATP2B1 antisense RNA 1),3,0.333,5.31,6.33
ACHE (acetylcholinesterase (Yt blood group)),1,0.0781,3.52,5.3
ACHE (acetylcholinesterase (Yt blood group)),2,-0.362,0.42,5.22
ACHE (acetylcholinesterase (Yt blood group)),3,-0.0216,2.82,5.68
ANTXR2 (ANTXR cell adhesion molecule 2),1,0.826,8.78,7.8
ANTXR2 (ANTXR cell adhesion molecule 2),2,-0.57,-1.04,5.19
ANTXR2 (ANTXR cell adhesion molecule 2),3,1.61,14.3,11.1
DAGLA (diacylglycerol lipase alpha),1,-1,-4.1,3.38
DAGLA (diacylglycerol lipase alpha),2,0.18,4.23,5.64
DAGLA (diacylglycerol lipase alpha),3,0.92,9.44,7.22
CCND3 (cyclin D3),1,-0.937,-3.62,2.85
CCND3 (cyclin D3),2,0.0943,3.63,6.32
CCND3 (cyclin D3),3,1.65,14.5,10.2
UBTFL7 (UBTF like 7 (pseudogene)),1,-0.754,-2.34,2.76
UBTFL7 (UBTF like 7 (pseudogene)),2,1.27,11.9,6.96
UBTFL7 (UBTF like 7 (pseudogene)),3,1.09,10.6,6.12
B9D1 (B9 domain containing 1),1,1.07,10.5,6.5
B9D1 (B9 domain containing 1),2,-0.332,0.631,6.19
B9D1 (B9 domain containing 1),3,6.84 (active),51.1,19.7
ZNF566 (zinc finger protein 566),1,-0.0884,2.35,3.62
ZNF566 (zinc finger protein 566),2,-0.245,1.25,6.47
ZNF566 (zinc finger protein 566),3,0.645,7.5,5.99
DCP1B (decapping mRNA 1B),1,-1.2,-5.5,1.63
DCP1B (decapping mRNA 1B),2,-0.134,2.02,3.64
DCP1B (decapping mRNA 1B),3,-0.167,1.79,3.33
HINT3 (histidine triad nucleotide binding protein 3),1,-0.802,-2.68,4.68
HINT3 (histidine triad nucleotide binding protein 3),2,-0.956,-3.76,3.33
HINT3 (histidine triad nucleotide binding protein 3),3,0.891,9.24,8.58
"GRPEL1 (GrpE like 1, mitochondrial)",1,-0.0273,2.78,3.77
"GRPEL1 (GrpE like 1, mitochondrial)",2,-1.05,-4.45,3.9
"GRPEL1 (GrpE like 1, mitochondrial)",3,0.914,9.4,6.58
SLC35B4,1,-0.427,-0.0358,4.07
SLC35B4,2,-1.17,-5.25,1.36
SLC35B4,3,1.71,15,7.67
TRAM1 (translocation associated membrane protein 1),1,1.53,13.7,9.57
TRAM1 (translocation associated membrane protein 1),2,-0.126,2.08,4.84
TRAM1 (translocation associated membrane protein 1),3,-0.276,1.03,3.66
CETN1 (centrin 1),1,-0.704,-1.99,2.67
CETN1 (centrin 1),2,-0.385,0.255,4.97
CETN1 (centrin 1),3,-0.415,0.0454,3.12
CLDN19 (claudin 19),1,-0.483,-0.43,2.94
CLDN19 (claudin 19),2,-0.461,-0.274,3.07
CLDN19 (claudin 19),3,-0.448,-0.188,3.46
PCDHA7 (protocadherin alpha 7),1,0.21,4.45,8.38
PCDHA7 (protocadherin alpha 7),2,-0.588,-1.17,4.02
PCDHA7 (protocadherin alpha 7),3,-0.493,-0.5,4.13
STON1-GTF2A1L (STON1-GTF2A1L readthrough),1,-0.084,2.38,5.15
STON1-GTF2A1L (STON1-GTF2A1L readthrough),2,1.76,15.4,12.5
STON1-GTF2A1L (STON1-GTF2A1L readthrough),3,1.4,12.8,9.97
TAS1R1 (taste 1 receptor member 1),1,-0.832,-2.89,1.59
TAS1R1 (taste 1 receptor member 1),2,0.132,3.9,6.06
TAS1R1 (taste 1 receptor member 1),3,1.24,11.7,9.43
PF4 (platelet factor 4),1,1.98,16.9,12.2
PF4 (platelet factor 4),2,-0.467,-0.317,4.1
PF4 (platelet factor 4),3,2.42,20,10.6
KRTAP12-2 (keratin associated protein 12-2),1,2.24,18.7,10.4
KRTAP12-2 (keratin associated protein 12-2),2,1.12,10.9,8.01
KRTAP12-2 (keratin associated protein 12-2),3,-0.394,0.198,4.27
FTL (ferritin light chain),1,3.73,29.2,19
FTL (ferritin light chain),2,0.587,7.09,6.69
FTL (ferritin light chain),3,5.09 (active),38.8,18.7
AXIN1 (axin 1),1,-0.493,-0.499,4.91
AXIN1 (axin 1),2,-0.419,0.0194,3.9
AXIN1 (axin 1),3,1.27,11.9,7.55
TUBGCP4 (tubulin gamma complex component 4),1,-0.16,1.84,4.56
TUBGCP4 (tubulin gamma complex component 4),2,2.57,21,12.5
TUBGCP4 (tubulin gamma complex component 4),3,-0.672,-1.76,2.7
MARCHF2 (membrane associated ring-CH-type finger 2),1,8.79 (active),64.8,35.4
MARCHF2 (membrane associated ring-CH-type finger 2),2,-0.537,-0.809,3.94
MARCHF2 (membrane associated ring-CH-type finger 2),3,-0.571,-1.05,3.4

Part of the list above, showing only “G2 cells, % of GMNN control”:
CCND3 (cyclin D3) #3 = 14.5
UBTFL7 (UBTF like 7 (pseudogene)) #1 = -2.34
UBTFL7 (UBTF like 7 (pseudogene)) #2 = 11.9
UBTFL7 (UBTF like 7 (pseudogene)) #3 = 10.6
B9D1 (B9 domain containing 1) #1 = 10.5
B9D1 (B9 domain containing 1) #2 = 0.631
